# Assay results: the supplement of paper PMC10735217
# Some of the results follow. This data set is noisy: repeats of one test often differ as much as different tests do.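 In a drug-repurposing library screen, luminescence reads luciferase driven by eight TEAD-binding elements, stably integrated into human kidney-derived cells. Compounds scoring over five robust Z scores above the plate mean are called hits.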
# Test system: HEK293A TEAD-LUC reporter
# Test: TEAD-luciferase reporter activity (YAP activation), robust Z score vs plate; higher = stronger YAP/TEAD activation
# Conditions: 24 h
Compound,TEAD-luciferase reporter activity (compound concentration: 2 uM),TEAD-luciferase reporter activity (compound concentration: 200 nM),TEAD-luciferase reporter activity (compound concentration: 10 uM)
CC(C)C[C@@H](C(=O)N[C@H](C(=O)OC1CCCC1)c1ccccc1)[C@H](O)C(=O)NO [tosedostat],inactive: -0.156,,
CC(C)C[C@@H](C(=O)N[C@H](C(=O)OC1CCCC1)c1ccccc1)[C@H](O)C(=O)NO [Tosedostat (CHR2797)],,inactive: -0.517,inactive: -0.754
COc1cc(N2CCC(N3CCN(C)CC3)CC2)ccc1Nc1ncnc(Nc2ccccc2S(=O)(=O)C(C)C)n1,inactive: -1.35,inactive: -1.66,inactive: -0.87
CN(C)CCOC(=O)C(c1ccccc1)C1(O)CCCC1 (stereo not drawn),inactive: 0.711,inactive: -1.08,inactive: -0.803
O=C(O)c1cc(O)c2c(c1)C(C1c3cc(C(=O)O)cc(O)c3C(=O)c3c(OC4OC(CO)C(O)C(O)C4O)cccc31)c1cccc(OC3OC(CO)C(O)C(O)C3O)c1C2=O (stereo not drawn),inactive: -0.863,inactive: 3.99,inactive: -0.194
CCCCCC(C)NCc1c(C)cc(C)cc1C (stereo not drawn) [trimexiline],inactive: 0.892,inactive: -0.329,inactive: 1.82
CC(C)[C@H](NC(=O)OCc1ccc(Cl)cc1Cl)C(=O)NC(CC(=O)O)C(=O)CF (stereo partly drawn),inactive: -0.6,inactive: -1.59,inactive: 4.91
C[C@H]1O[C@@H](O[C@H]2[C@@H](O)C[C@H](O[C@H]3[C@@H](O)C[C@H](O[C@H]4CC[C@@]5(C)[C@H](CC[C@@H]6[C@@H]5C[C@@H](O)[C@]5(C)[C@@H](C7=CC(=O)OC7)CC[C@]65O)C4)O[C@@H]3C)O[C@@H]2C)C[C@H](O)[C@@H]1O [Digoxin],inactive: -2.8,active: 9.57,active: 17
COc1cc(NCCCCCNC(C)C)c2ncccc2c1,inactive: 1.18,inactive: -0.781,inactive: 0.689
CCCOc1cc([C@]2(C)CNC(=O)O2)ccc1OC,inactive: 2.81,inactive: -1.56,inactive: -1.44
O=C1C[O][Pt][O]1,,inactive: 0.00917,inactive: -0.354
C[n+]1cccc(C(=O)O[C@H]2CCC3C4CCc5cc(O)ccc5C4CC[C@]32C)c1 (stereo partly drawn),inactive: 0.232,inactive: -1.22,inactive: -0.176
CCCc1ccc(COc2ccc3c(c2)CCC(CN2CC(C(=O)O)C2)=C3C)c(OC)c1 [Ceralifimod],inactive: 0.867,inactive: -1.18,inactive: 0.806
N#C[C@@H]1C[C@H](F)CN1C(=O)C(N)C(c1ccc(F)cc1)c1ccc(F)cc1 (stereo partly drawn),inactive: -0.623,inactive: -0.693,inactive: 1.46
CC(C)(C)[C@H](c1nc(-c2cc(F)ccc2F)cn1Cc1ccccc1)N(CC[C@H](N)CF)C(=O)CO,inactive: -0.3,inactive: -2.12,inactive: 2.74
CCN1CCCCC12Cc1ccccc1CN(C(=O)CCCN(C)C)C2 (stereo not drawn),,inactive: -1.24,inactive: 4.47
CCOC(=O)CN[C@@H](C(=O)N1CC[C@H]1C(=O)NCc1ccc(C(=N)NO)cc1)C1CCCCC1 [Ximelagatran],inactive: -1.32,inactive: -1.66,inactive: 0.805
Nc1ccn([C@@H]2O[C@H](CO)C(O)C2(F)F)c(=O)n1 (stereo partly drawn) [gemcitabine],inactive: -1.74,inactive: -0.895,inactive: -0.268
CC(=O)[C@H]1CC[C@H]2[C@@H]3C[C@H](C)C4=CC(=O)CC[C@]4(C)[C@H]3[C@@H](O)C[C@]12C,inactive: 0.0406,inactive: -0.214,inactive: -1.12
CCN(CC)CCNC(C(=O)OCCC(C)C)c1ccccc1 (stereo not drawn),inactive: 1.8,inactive: -1.1,inactive: -1.83
CCCNC(C)(C)COC(=O)c1ccccc1,inactive: 0.534,inactive: -1.35,inactive: 0.611
COC[C@@]1(O)CC[C@]2(C)C3CC[C@@]4(C)C(CC[C@@H]4C(=O)COc4ccc5c(ccc[n+]5[O-])c4)C3CC[C@H]2C1 (stereo partly drawn),inactive: 0.157,inactive: -0.199,inactive: 1.13
C#CCC(c1nc2cc(Cl)ccc2c(=O)n1Nc1ccccc1)N(CCCN)C(=O)c1cccc(Cl)c1F (stereo not drawn),inactive: -1.61,inactive: -1.4,inactive: 1.7
O=C1CCC(/C=C/c2ccncc2)=NN1,inactive: -0.235,inactive: -0.0952,inactive: -1.59
CC[C@H](O)C(C)(O)[C@@H]1OC(=O)[C@H](C)[C@H](OC2CC(C)(OC)C(O)C(C)O2)[C@@H](C)[C@H](OC2OC(C)CC(N(C)C)C2O)[C@@]2(C)CC(C)=C(O2)[C@@H]1C (stereo partly drawn),inactive: -1.25,inactive: -0.345,inactive: -0.931
COc1cc(Nc2ncc(F)c(Nc3ccc4c(n3)N(COP(=O)(O)O)C(=O)C(C)(C)O4)n2)cc(OC)c1OC [Fostamatinib disodium],inactive: -1.91,inactive: -0.206,inactive: -1.49

# An excerpt from further up, as a working copy:
Compound,TEAD-luciferase reporter activity (compound concentration: 2 uM),TEAD-luciferase reporter activity (compound concentration: 200 nM),TEAD-luciferase reporter activity (compound concentration: 10 uM)
C[n+]1cccc(C(=O)O[C@H]2CCC3C4CCc5cc(O)ccc5C4CC[C@]32C)c1 (stereo partly drawn),inactive: 0.232,inactive: -1.22,inactive: -0.176
CCCc1ccc(COc2ccc3c(c2)CCC(CN2CC(C(=O)O)C2)=C3C)c(OC)c1 [Ceralifimod],inactive: 0.867,inactive: -1.18,inactive: 0.806
